# From the supplement of paper PMC12823440, “Inhibitors supercharge kinase turnover through native proteolytic circuits” (Nature, 2025)
# Amino acid sequences for entries named in this document (tags omitted). A change or cut given only in a name is not applied to a line headed by its entry.
# UniProt P36888, whole entry: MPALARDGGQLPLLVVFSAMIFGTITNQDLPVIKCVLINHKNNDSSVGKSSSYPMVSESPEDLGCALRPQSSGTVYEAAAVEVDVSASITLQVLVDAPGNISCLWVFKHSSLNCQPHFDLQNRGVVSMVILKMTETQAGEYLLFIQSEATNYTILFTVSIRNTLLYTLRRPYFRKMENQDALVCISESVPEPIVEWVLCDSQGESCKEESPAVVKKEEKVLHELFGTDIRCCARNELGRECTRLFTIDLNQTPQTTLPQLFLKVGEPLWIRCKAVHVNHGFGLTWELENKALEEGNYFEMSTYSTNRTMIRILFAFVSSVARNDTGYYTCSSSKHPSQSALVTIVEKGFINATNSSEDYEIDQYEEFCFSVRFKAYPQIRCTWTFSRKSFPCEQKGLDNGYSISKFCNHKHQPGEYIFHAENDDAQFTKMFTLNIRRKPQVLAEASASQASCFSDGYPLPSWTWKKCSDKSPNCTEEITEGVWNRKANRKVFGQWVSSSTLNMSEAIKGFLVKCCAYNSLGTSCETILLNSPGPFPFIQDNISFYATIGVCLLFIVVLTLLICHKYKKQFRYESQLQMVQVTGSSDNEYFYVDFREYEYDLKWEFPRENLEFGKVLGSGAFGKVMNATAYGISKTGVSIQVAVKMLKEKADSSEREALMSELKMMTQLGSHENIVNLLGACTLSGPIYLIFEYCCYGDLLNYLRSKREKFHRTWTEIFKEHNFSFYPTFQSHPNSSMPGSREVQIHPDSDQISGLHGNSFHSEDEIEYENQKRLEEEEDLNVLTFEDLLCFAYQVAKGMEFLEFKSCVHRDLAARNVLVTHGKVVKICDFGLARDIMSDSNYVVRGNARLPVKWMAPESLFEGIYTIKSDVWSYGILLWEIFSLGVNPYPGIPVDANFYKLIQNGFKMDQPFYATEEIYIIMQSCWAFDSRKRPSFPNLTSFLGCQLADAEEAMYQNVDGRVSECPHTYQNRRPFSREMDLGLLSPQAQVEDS
# UniProt P06241, whole entry, looked up: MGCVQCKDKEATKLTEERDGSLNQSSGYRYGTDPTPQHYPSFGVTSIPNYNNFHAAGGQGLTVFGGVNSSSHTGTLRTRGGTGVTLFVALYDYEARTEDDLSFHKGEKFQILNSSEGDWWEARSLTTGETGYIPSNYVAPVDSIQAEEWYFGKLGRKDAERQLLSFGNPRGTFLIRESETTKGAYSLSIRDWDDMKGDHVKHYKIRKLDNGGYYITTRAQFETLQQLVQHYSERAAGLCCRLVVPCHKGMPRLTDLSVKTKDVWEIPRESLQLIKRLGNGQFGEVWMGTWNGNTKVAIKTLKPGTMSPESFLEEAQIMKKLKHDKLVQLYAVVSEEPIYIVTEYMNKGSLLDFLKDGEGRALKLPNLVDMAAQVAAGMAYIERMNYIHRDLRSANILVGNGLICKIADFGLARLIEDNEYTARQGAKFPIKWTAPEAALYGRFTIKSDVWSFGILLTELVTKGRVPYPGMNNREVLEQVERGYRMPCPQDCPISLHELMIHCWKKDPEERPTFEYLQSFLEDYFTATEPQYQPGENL
# UniProt P14616: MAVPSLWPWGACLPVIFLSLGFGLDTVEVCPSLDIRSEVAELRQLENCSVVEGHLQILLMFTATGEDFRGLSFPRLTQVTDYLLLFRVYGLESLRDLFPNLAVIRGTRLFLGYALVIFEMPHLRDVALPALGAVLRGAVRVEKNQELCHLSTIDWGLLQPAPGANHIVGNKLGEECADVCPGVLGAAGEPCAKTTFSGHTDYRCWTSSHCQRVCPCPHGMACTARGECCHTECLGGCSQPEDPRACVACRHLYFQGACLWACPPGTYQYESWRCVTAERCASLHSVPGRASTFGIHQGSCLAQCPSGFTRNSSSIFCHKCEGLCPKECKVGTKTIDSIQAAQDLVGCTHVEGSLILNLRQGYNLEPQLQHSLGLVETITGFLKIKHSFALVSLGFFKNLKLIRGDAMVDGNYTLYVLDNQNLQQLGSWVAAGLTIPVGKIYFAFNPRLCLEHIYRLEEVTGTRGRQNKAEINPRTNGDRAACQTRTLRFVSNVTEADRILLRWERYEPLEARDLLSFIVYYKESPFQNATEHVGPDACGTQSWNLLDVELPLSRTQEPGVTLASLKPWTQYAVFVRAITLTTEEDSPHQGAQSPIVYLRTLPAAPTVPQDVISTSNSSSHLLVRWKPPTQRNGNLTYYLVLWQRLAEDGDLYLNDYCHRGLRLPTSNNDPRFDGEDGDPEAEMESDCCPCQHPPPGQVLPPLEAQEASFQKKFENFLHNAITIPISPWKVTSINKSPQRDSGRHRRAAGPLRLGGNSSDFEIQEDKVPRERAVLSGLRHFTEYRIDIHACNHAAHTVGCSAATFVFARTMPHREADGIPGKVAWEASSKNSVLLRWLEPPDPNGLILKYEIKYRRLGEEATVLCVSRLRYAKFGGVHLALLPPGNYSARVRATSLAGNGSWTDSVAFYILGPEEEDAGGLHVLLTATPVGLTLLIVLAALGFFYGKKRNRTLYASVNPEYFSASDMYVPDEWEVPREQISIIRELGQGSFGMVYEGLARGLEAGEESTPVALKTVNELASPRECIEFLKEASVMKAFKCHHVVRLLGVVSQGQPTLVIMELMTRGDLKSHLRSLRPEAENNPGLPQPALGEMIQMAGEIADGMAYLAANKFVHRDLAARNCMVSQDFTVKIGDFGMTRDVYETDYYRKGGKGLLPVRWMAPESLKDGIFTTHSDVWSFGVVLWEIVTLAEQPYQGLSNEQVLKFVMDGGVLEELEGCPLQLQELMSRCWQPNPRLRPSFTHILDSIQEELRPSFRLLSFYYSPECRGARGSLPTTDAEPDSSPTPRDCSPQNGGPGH
# UniProt P23458: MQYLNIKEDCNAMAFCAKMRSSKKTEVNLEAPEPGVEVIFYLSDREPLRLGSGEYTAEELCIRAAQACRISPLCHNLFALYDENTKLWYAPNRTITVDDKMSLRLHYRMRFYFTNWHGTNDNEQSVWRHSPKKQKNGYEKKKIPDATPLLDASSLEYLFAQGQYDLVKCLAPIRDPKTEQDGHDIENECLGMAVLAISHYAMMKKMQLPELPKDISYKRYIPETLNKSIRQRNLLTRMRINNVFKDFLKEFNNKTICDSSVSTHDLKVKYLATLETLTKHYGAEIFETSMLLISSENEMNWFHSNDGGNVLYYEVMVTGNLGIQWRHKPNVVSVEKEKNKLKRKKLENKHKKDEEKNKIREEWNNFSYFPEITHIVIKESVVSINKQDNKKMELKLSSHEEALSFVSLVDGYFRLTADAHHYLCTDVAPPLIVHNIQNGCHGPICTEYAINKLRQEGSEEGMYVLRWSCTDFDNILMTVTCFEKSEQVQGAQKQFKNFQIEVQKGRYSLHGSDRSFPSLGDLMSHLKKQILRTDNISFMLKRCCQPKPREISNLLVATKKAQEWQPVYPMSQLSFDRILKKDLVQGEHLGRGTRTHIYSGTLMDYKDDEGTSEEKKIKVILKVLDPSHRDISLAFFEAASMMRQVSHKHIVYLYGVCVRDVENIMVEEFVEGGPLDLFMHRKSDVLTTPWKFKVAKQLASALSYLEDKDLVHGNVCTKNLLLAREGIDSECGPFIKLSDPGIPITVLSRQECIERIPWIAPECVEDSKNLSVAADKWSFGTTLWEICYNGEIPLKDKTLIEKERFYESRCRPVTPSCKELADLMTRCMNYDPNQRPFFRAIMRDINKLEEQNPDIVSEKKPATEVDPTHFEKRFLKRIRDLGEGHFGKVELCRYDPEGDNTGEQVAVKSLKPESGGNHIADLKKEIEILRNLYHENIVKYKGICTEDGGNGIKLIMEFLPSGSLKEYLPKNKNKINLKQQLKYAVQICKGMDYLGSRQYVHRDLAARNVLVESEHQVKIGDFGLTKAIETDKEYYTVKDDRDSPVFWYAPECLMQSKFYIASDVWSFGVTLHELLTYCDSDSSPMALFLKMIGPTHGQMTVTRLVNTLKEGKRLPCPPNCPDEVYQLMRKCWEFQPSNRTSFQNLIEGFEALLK
# UniProt P06239: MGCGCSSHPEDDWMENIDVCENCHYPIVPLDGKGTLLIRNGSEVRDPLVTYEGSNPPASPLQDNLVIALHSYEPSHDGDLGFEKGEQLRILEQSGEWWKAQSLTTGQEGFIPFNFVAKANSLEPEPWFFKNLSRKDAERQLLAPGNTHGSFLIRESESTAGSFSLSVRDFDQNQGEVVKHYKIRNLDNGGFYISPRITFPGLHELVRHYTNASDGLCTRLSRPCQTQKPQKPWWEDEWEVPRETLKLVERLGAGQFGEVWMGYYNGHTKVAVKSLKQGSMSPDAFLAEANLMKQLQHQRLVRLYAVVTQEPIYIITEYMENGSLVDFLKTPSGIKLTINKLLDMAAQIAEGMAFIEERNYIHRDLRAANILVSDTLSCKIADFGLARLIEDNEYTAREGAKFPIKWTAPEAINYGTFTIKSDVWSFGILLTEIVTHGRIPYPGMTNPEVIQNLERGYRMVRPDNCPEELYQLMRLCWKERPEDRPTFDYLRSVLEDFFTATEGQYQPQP
# UniProt P53671: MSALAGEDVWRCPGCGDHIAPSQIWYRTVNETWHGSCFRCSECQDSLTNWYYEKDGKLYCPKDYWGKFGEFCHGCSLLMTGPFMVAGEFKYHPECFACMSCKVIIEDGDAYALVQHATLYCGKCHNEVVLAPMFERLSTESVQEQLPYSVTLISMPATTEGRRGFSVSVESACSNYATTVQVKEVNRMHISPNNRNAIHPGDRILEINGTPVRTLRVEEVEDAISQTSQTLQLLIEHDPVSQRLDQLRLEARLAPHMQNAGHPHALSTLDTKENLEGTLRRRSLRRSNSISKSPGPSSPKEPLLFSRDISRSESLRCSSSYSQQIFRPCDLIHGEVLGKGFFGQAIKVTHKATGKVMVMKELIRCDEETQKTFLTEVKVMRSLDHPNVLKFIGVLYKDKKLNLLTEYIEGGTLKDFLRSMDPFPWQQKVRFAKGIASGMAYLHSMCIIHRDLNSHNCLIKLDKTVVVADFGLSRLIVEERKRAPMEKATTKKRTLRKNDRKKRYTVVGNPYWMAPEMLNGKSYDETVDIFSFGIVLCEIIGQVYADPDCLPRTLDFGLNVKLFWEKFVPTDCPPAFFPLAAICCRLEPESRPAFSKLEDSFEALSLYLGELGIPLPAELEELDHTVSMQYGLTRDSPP
# UniProt P28482, whole entry: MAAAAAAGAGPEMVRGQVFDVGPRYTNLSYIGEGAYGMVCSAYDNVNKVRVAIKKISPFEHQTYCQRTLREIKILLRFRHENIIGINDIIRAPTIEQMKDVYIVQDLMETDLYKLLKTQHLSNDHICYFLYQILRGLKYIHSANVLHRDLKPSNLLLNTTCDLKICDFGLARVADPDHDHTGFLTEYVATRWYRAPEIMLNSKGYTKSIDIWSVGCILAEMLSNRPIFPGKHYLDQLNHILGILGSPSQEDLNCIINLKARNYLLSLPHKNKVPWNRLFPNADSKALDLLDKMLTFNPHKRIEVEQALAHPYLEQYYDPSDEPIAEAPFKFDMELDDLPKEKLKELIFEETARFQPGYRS
# UniProt P49137, whole entry, looked up: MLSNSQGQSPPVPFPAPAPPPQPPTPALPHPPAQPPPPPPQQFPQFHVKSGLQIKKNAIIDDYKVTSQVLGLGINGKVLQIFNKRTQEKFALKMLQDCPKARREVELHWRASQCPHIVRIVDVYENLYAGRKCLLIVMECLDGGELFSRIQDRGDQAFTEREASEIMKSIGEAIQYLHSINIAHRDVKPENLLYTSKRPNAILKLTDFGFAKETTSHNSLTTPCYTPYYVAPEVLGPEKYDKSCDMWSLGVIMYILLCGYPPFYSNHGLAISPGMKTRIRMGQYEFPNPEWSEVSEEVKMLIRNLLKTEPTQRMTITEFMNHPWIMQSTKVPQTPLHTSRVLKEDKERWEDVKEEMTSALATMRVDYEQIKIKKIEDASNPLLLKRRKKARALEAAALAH
# UniProt Q9BUB5: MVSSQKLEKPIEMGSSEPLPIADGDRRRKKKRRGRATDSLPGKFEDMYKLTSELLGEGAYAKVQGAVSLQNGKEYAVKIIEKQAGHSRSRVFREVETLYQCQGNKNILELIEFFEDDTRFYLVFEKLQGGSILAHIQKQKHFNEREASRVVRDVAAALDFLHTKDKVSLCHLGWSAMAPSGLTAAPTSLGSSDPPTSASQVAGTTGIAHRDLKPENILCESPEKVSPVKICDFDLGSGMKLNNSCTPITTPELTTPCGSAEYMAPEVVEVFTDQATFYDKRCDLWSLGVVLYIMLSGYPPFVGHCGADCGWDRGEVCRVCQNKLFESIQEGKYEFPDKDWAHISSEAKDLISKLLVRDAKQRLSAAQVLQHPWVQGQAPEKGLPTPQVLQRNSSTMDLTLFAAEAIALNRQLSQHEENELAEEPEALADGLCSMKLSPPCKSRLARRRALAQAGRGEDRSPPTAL
# Counter-ions that a name gives are not always drawn. The list shows a part of the results. The calls rarely recur for the same compound in another form.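 Kinases were expressed as nanoluciferase fusions in K562 cells and luminescence was read every 4 h between 2 and 18 h as percent of control, DMSO set to 100% and a positive control to 0%. A time point counts as decreased when the signal drops significantly (2 sigma). The hit call is the authors' own, does not follow from the count of time points alone, and its rule is not shown.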
# Key:
# Test in all cases: number of time points (of 5) at which kinase-Nluc abundance scored as decreased, DMSO-normalised (count); higher = more persistent destabilization
# Details in all cases: K562; 2-18 h
# FLT3 = FLT3 (UniProt P36888)
# FYN = FYN (UniProt P06241)
# GSK3A = GSK3A (UniProt P49840)
# HER2 = HER2 (UniProt P04626)
# INSRR = INSRR (UniProt P14616)
# IRAK3 = IRAK3 (UniProt Q9Y616)
# JAK1 = JAK1 (UniProt P23458)
# LCK = LCK (UniProt P06239)
# LIMK1 = LIMK1 (UniProt P53667)
# LIMK2 = LIMK2 (UniProt P53671)
# LMTK2 = LMTK2 (UniProt Q8IWU2)
# LYN = LYN (UniProt P07948)
# MAP2K1 = MAP2K1 (UniProt Q02750)
# MAP2K2 = MAP2K2 (UniProt P36507)
# MAP4K2 = MAP4K2 (UniProt Q12851)
# MAPK1 = MAPK1 (UniProt P28482)
# MAPK4 = MAPK4 (UniProt P31152)
# MAPKAPK2 = MAPKAPK2 (UniProt P49137)
# MKNK1 = MKNK1 (UniProt Q9BUB5)
# NTRK2 = NTRK2 (UniProt Q16620)
Structure (SMILES),number of time points (FLT3),number of time points (FYN),number of time points (GSK3A),number of time points (HER2),number of time points (INSRR),number of time points (IRAK3),number of time points (JAK1),number of time points (LCK),number of time points (LIMK1),number of time points (LIMK2),number of time points (LMTK2),number of time points (LYN),number of time points (MAP2K1),number of time points (MAP2K2),number of time points (MAP4K2),number of time points (MAPK1),number of time points (MAPK4),number of time points (MAPKAPK2),number of time points (MKNK1),number of time points (NTRK2)
O=C(O)c1cc(=O)c2c(OCC(O)COc3cccc4oc(C(=O)O)cc(=O)c34)cccc2o1 [Cromolyn (sodium)] (10 µM),0,0,0,0,0,0,0,0,0,0,0,0,0,0,0,0,0,0,0,0
CC(C)=CCc1c(-c2ccc(O)cc2O)oc2c3c(cc(O)c2c1=O)OC(C)(C)C=C3 [Morusin] (2.5 µM),0,0,0,0,0,0,0,0,0,0,0,0,0,0,0,0,0,0,0,0
Cc1nn(C)c2c1C(c1ccc(C(F)(F)F)cc1)C(C#N)=C(N)O2 (stereo not given) (10 µM),0,0,0,0,0,0,0,0,0,0,0,0,0,0,0,0,0,0,0,0
Cc1ncc(NC(=O)NC2c3ccccc3-c3ccccc32)c(-c2ccccc2)n1 (10 µM),0,0,0,0,0,0,0,0,0,0,0,0,0,0,0,0,0,0,0,0
COc1ccccc1C(=O)/C=C/c1ccccc1C(=O)O (10 µM),0,0,0,0,0,0,0,0,0,0,0,0,0,0,0,0,0,0,0,0
COc1nn(C)cc1Nc1nccc(-c2c[nH]c3c(NC(=O)[C@@H](C)N4CCN(C)CC4)cccc23)n1 (10 µM),0,0,0,0,0,0,0,0,0,0,0,0,0,0,0,0,0,0,0,0
NC(=O)c1cnc2[nH]ccc2c1N[C@@H]1[C@@H]2CC3C[C@H]1C[C@@](O)(C3)C2 [Peficitinib] (10 µM),2,4,0,2,0,3,3,0,1,0,3,0,0,0,0,0,0,0,3,0
Cc1ccc(C(=O)Nc2sc(Nc3ccccc3)nc2C(N)=O)cc1 (10 µM),0,0,0,0,0,0,0,0,0,0,0,0,0,0,0,0,0,0,0,0
Nc1nccc(Oc2ccc(NC(=O)c3c[nH]cc(-c4ccc(F)cc4)c3=O)cc2F)c1Cl (10 µM),3,0,0,5,2,0,3,0,4,4,0,0,0,0,0,0,0,0,4,2
CC1(C)Cc2c(sc(NC(=S)NC(=O)c3ccccc3)c2C(=O)O)CO1 (10 µM),0,0,0,0,0,0,0,0,0,0,0,0,0,0,0,0,0,0,0,0
CC[C@@](C)(Nc1ccnc(-c2c[nH]c3ncccc23)n1)C(=O)NCC(F)(F)F [Decernotinib] (10 µM),0,0,0,0,0,0,0,0,0,0,0,0,0,0,0,0,0,0,0,0
O=C(NCc1cccc(O)c1)Nc1nc(-c2ccncc2)cs1 (10 µM),0,0,0,0,0,0,0,0,0,0,0,0,0,0,0,0,0,0,0,0
COc1cc(N2CCOCC2)ccc1Nc1ncc(Cl)c(Nc2ccccc2NS(C)(=O)=O)n1 (2.5 µM),0,0,0,0,0,0,0,0,0,0,0,0,0,0,0,0,0,0,0,0
CS(=O)(=O)c1ccc(-c2cnc(N)c(-c3ccc(C(F)(F)F)nc3)c2)cc1 (10 µM),0,0,0,0,0,0,0,0,0,0,0,0,0,0,0,0,0,0,0,0
O=C(Nc1cccc(C(F)(F)F)c1)c1cccc2cc(Oc3cc(CO)ncn3)ccc12 (10 µM),0,0,0,0,0,0,0,0,0,0,0,0,0,0,0,0,0,0,0,0
Oc1ccc(/C=C/c2cc(O)cc(O)c2)cc1 [Resveratrol] (10 µM),0,0,0,0,0,0,0,0,0,0,0,0,0,0,0,0,0,0,0,0
CC(C)CNc1ccnc(NCc2csc(-c3ccccc3)n2)n1 [KHS101 hydrochloride] (2.5 µM),0,0,0,0,0,0,0,0,0,0,3,0,0,0,0,0,0,0,0,0
FC(F)(F)c1ccc(/C=C/c2nc(COc3ccc(CCCCn4ccnn4)cc3)co2)cc1 [Mubritinib] (10 µM),1,0,0,1,0,3,0,0,0,0,1,0,0,0,0,0,0,0,0,0
C[C@H](Nc1ncnc2nc[nH]c12)c1cc2cccc(Cl)c2c(=O)n1-c1ccccc1 [Duvelisib] (10 µM),0,0,0,0,0,0,0,0,0,0,0,0,0,0,0,0,0,0,0,0
Cn1ncc2cc(-c3cnc(N)c(Cl)c3N3CCC4(CCNC4=O)CC3)ccc21 (10 µM),0,0,0,0,0,0,0,0,0,0,0,0,0,0,0,0,0,0,0,0
Cc1cccc(-c2[nH]c(C(C)(C)C)nc2-c2ccc3nccnc3c2)n1 (10 µM),0,0,0,0,0,0,0,0,0,0,0,0,0,0,0,0,0,0,0,0
CN(C)CCC=C1c2ccccc2CCc2ccccc21 [Amitriptyline (hydrochloride)] (2.5 µM),0,0,0,0,0,0,0,0,0,0,0,0,0,0,0,0,0,0,0,0

# Some of the entries so far, as tab-separated lines.
Structure (SMILES)	number of time points (FLT3)	number of time points (FYN)	number of time points (GSK3A)	number of time points (HER2)	number of time points (INSRR)	number of time points (IRAK3)	number of time points (JAK1)	number of time points (LCK)	number of time points (LIMK1)	number of time points (LIMK2)	number of time points (LMTK2)	number of time points (LYN)	number of time points (MAP2K1)	number of time points (MAP2K2)	number of time points (MAP4K2)	number of time points (MAPK1)	number of time points (MAPK4)	number of time points (MAPKAPK2)	number of time points (MKNK1)	number of time points (NTRK2)
NC(=O)c1cnc2[nH]ccc2c1N[C@@H]1[C@@H]2CC3C[C@H]1C[C@@](O)(C3)C2 [Peficitinib] (10 µM)	2	4	0	2	0	3	3	0	1	0	3	0	0	0	0	0	0	0	3	0
Cc1ccc(C(=O)Nc2sc(Nc3ccccc3)nc2C(N)=O)cc1 (10 µM)	0	0	0	0	0	0	0	0	0	0	0	0	0	0	0	0	0	0	0	0
